PubChem BioAssay AID652259 | Drosophila RNAi Screening Center – 2013
The screen tested about 22,000 reagents; shown is an unselected part of those with a known target gene and a result. In the full data, 233 (1.1%) are marked active. 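Light values are raw, unnormalised plate reads; the ratio scores behind the reporter calls were not deposited.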 A number with no mark means an inactive call. Reagents against one gene are numbered here. A plus sign joins genes that one reagent is predicted to hit. Not given: the amount of reagent, the time to read-out, the dose of the treatment.

Test: 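Knock-downs that push a Wingless-driven reporter up or down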 (primary screen)
Cells: Drosophila clone 8 imaginal disc epithelial cells
Reagent: long dsRNA against Drosophila genes
Conditions: pathway stimulated by co-transfected Wingless expression plasmid
Measured: 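Dual luciferase reads per well after Wingless plasmid stimulation: reporter firefly light and Renilla control light; activity is firefly divided by Renilla, a ratio not deposited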
Direction: firefly reporter light: higher = more Wg reporter light, before normalisation; Renilla control light: higher = more transfected or surviving cells
Rule for the call: 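Strong candidates differ from their plate mean by at least two out of four per-plate statistical tests; weak candidates meet just one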
Calls: active = candidate regulator (raises or lowers reporter); inactive = not a candidate

no.	predicted target	reagent no.	reporter change call, replicate 1	firefly reporter light, replicate 1	firefly reporter light, replicate 2	Renilla control light, replicate 1	Renilla control light, replicate 2
1	bond	1		2112	4418	924	945
2	bib	1		6380		2076	
3	Pph13	1		9597		2626	
4	CG6763	1		15568		13965	
5	l(2)dtl	1		20131		5356	
6	Smug	1		14803		4583	
7	CG42299 + CG42300	1		20724		7370	
8	CG42299 + CG42300	2		16954		8588	
9	CG31244	1		5.32e5	5.15e5	2.52e5	1.73e5
10	CG33981 + fab1	1		13336		5026	
11	CG9890	1		2740	8762	791	2609
12	Megf8	1		9768		4152	
13	Recs1	1		10337		2212	
14	thoc6	1		4330		1817	
15	CR33294	1		5.29e5	5.62e5	2.25e5	1.99e5
16	Rae1	1		10400		2132	
17	Nnp-1	1		4385	8949	1299	4765
18	asRNA:CR31084	1		6.55e5	6.49e5	4.33e5	3.38e5
19	dx	1		15074		6512	
20	CG34129	1		20466		21974	
21	SdhA	1		7848		2592	
22	GstE3	1		5152		1701	
23	CG31817	1		13739		6915	
24	CG31817	2		23930		12839	
25	CG31817	3		3.34e5	3.38e5	1.17e5	46378
26	Girdin	1		7147		2825	
27	Gasp	1		9389		2513	
28	pths	1		4098	4435	610	1940
29	CG42362 + CG42363	1		9451		1972	
30	CG34011	1		11064		6308	
31	CG13471	1		5017		2172	
32	TyrR	1		4075		2217	
33	TyrR	2		12792		1732	
34	CR42548	1		3956		1685	
35	l(3)neo43	1		14640		2265	
36	CG2070	1		2265	6973	746	2252
37	CG15891 + CG15892	1		5418	16451	1026	2464
38	CG15891 + CG15892	2		16749		9488	
39	CG7294	1		2962	7532	1815	3798
40	Sk1	1		18256		9108	
41	Mnat9	1		14608		12391	
42	Slbp	1		7076		2464	
43	Pitslre	1		9542		1868	
44	Pif1A	1		5161		1282	
45	Pif1A	2		17962		3616	
46	CG5276	1		13570		2119	
47	CG31820	1		8.56e5	8.30e5	5.29e5	3.67e5
48	alph	1		2512	8486	1104	2672
49	InR	1		39970		8432	
50	CG32248	1		3427		1667	
51	Cul5	1		8733		3296	
52	CG4021	1		2547	9969	778	3843
53	CG14370	1		16464		3465	
54	corto	1		3504		464	
55	corto	2		25571		7949	
56	corto	3		7.53e5	6.70e5	3.12e5	3.36e5
57	TTLL3A	1		1898	8775	889	2795
58	CG11018	1		12012		3200	
59	galene	1		4260		2359	
60	galene	2		7072		3925	
61	Cam	1		9437	8.15e5	3856	3.69e5
62	Cam	2		8748		3412	
63	CarT	1		10904		2836	
64	udd	1		1520	6085	790	2896
65	His2B:CG33870 + His2B:CG33868 + His2B:CG33882 + 21 more	1		3164	7475	272	418
66	CG5440	1		4481	5185	1731	2507
67	RpL7	1	Wg reporter activity raised	4880	6227	707	2160
68	Cpn	1		6692		2676	
69	CG1418	1		2807	6422	770	2620
70	RpS21	1		3748		1641	
71	BoYb	1		8084		3354	
72	CG13833	1		20953		14025	
73	CG31948	1		3081	7100	1200	3185
